Measurements published in PubChem BioAssay AID2685 (National Center for Advancing Translational Sciences (NCATS), 2010).
Several values for one entry are separate records, joined by “and”; a condition that tells them apart may be missing. Equal values may be shown once. The list shows a part of the results. These are further read-outs of the screen, such as a control signal, another cell line or another target. No call is given for them. Compounds called inactive in the main read-out are mostly missing here. The note in brackets gives the kind of curve behind each potency; many fits are weak.

Assay: qHTS Assay for Lipid Storage Modulators in Drosophila S3 Cells;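 on cell number change: cells counted by Cell Tracker Red CMTPX staining in the red channel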
Conditions: BODIPY lipid droplet fluorescence, 18-24 h; for cell number change: measured here: cell count max response, cells fed with added oleic acid
Summary of the method: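 Laser-scanning cytometry quantifies lipid droplet accumulation (500–530 nm total intensity; droplet/cell object ratio) in oleic acid-fed (400 uM added) Drosophila S3 cells treated with a concentration series. 20 uM Triacsin C defined 100% inhibition.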

[1] = measured here: cell number channel AC50, cells fed with added oleic acid
[2] = measured here: lipid fluorescence (Fed channel) AC50, cells fed with added oleic acid

Row | Compound | cell number change | AC50 [1] | AC50 [2]
1 | NS(=O)(=O)c1ccc(NC(=S)NC2CCCC2)cc1 | -0.235% |  | 
2 | c1ccc(-c2nnc(-c3ccncc3)o2)cc1 | 91.8% | 7.31 µM [rising, partial curve] | 
3 | Cc1c(C(=O)N2CCOCC2)[nH]c2c1C(=O)CC(c1ccccc1Cl)C2 (stereo not given) | 2.23% |  | 4.11 µM [rising, full curve]
4 | CN1CCN(C(=O)C2CCCN(S(=O)(=O)c3ccc(F)cc3)C2)CC1 (stereo not given) | -1.65% |  | 18.4 µM [rising, partial curve]
5 | CCOc1cc(C2C(C#N)=C(N)OC(C)=C2C(C)=O)cc(Br)c1O (stereo not given) |  |  | 0.731 µM [falling, full curve]
6 | O=C(O)c1ccc(-n2cccc2)cc1O | 7.4% |  | 20.6 µM [falling, partial curve]
7 | COc1cccc(N2CC(C(=O)Nc3ccc(C(=O)OC(C)C)cc3)CC2=O)c1 (stereo not given) | -27.3% |  | 11.6 µM [falling, partial curve]
8 | CCOC(=O)N1CCN(S(=O)(=O)c2ccc(C(=O)N(CCCN(C)C)c3nc4c(C)c(C)ccc4s3)cc2)CC1 | 38% | 25.9 µM [rising, single point] | 0.13 µM [falling, full curve, poor fit]
9 | CCC(=O)N1CCCN(S(=O)(=O)c2ccc(C)cc2)C1c1ccc(OC)cc1 (stereo not given) | -15.4% |  | 29.1 µM [rising, partial curve, poor fit]
10 | O=C(CSc1nc(=O)n(CCCN2CCOCC2)c2c1CCCC2)Nc1cccc(Cl)c1 | -7.91% |  | 2.91 µM [falling, partial curve]
11 | COCCn1cnc2c1c(=O)n(CC(=O)NCC(F)(F)F)c(=O)n2Cc1ccccc1 | 22.5% | 0.82 µM [rising, full curve, poor fit] | 
12 | COc1ccc(N2C(=O)CCC2(C(N)=O)c2ccccc2)cc1 (stereo not given) | 6.78% | 0.00461 µM [falling, full curve, poor fit] | 
13 | COc1cc2c(cc1OC)C(c1cccs1)N(C(=O)c1cccnc1)CC2 (stereo not given) |  | 0.103 µM [rising, single point] | 
14 | CCOc1ccc(CC2NCCc3cc(OCC)c(OCC)cc32)cc1OCC (stereo not given) | 18.2% | 0.082 µM [rising, full curve, poor fit] | 
15 | Cc1ccc2cc3c(nc2c1)N(c1ccccc1)CC3 |  | 0.146 µM [rising, full curve] | 
16 | O=C(O)CSc1nc2c(c(C(F)(F)F)n1)CCCC2 | -54.1% and -44.7% | 6.51 µM [falling, partial curve] and 29.1 µM [falling, single point] | 29.1 µM [falling, single point]
17 | Cc1ccc(N2CCN(S(=O)(=O)c3cccs3)CC2C)cc1 (stereo not given) |  |  | 29.1 µM [falling, single point]
18 | COC(=O)CSc1nc2ccc(NC(C)=O)cc2s1 | -3.3% |  | 0.58 µM [falling, single point]
19 | CC(C)NC(=S)N/N=C/c1cccs1 | -60.9% | 0.13 µM [falling, full curve] | 0.13 µM [falling, full curve, poor fit]
20 | CN(C)C(=S)NCc1ccccc1 | 23.4% |  | 20.6 µM [rising, partial curve, poor fit]

Row | Compound | cell number change | AC50 [1] | AC50 [2]
21 | COCCN(C(=O)CSc1nnc(-c2cccs2)n1N)c1c(N)n(Cc2ccccc2)c(=O)[nH]c1=O | 17.1% |  | 
22 | Cc1cc(NC(=O)C(C)C)ncc1NC(=O)CCc1ccccc1 | 3.26% |  | 
23 | Cc1nn(-c2ccccc2)c(C)c1C(=O)OCC(=O)N(C)C1CCS(=O)(=O)C1 (stereo not given) | -21.2% | 0.517 µM [falling, full curve, poor fit] | 
24 | O=C(O)CCCNS(=O)(=O)c1ccc(F)cc1 | 0.707% |  | 0.103 µM [falling, full curve, poor fit]
25 | CCC(C(=O)NC1CCCC1)N(C(=O)Cn1nnc(-c2ccc(OC)c(OC)c2)n1)C1CCCCC1 (stereo not given) | -8.86% |  | 0.651 µM [rising, full curve, poor fit]
26 | COc1ccc(Nc2nc(-c3sc(C)nc3C)cs2)cc1 | -13.3% |  | 16.4 µM [rising, single point]
27 | CCn1nc(NS(=O)(=O)c2ccc([N+](=O)[O-])cc2)c2cc3cccc(C)c3nc21 |  |  | 1.64 µM [falling, partial curve]
28 | COc1cccc(NC(=O)c2ncc(Cl)c(Cl)c2Cl)c1 | -44.5% | 0.00651 µM [falling, full curve, poor fit] | 0.164 µM [falling, full curve]
29 | Cc1ccc(NS(=O)(=O)c2cccc(C(=O)NCC(c3cccs3)N3CCOCC3)c2)cc1 (stereo not given) | 8.01% |  | 0.411 µM [falling, single point]
30 | Cn1c(N)c(C(=O)COC(=O)CNC(=O)c2ccccc2Cl)c(=O)n(C)c1=O | -1.78% | 6.51 µM [falling, single point] | 6.51 µM [falling, single point]
31 | CCc1ccc2c(c1)cc(CN(C(=S)Nc1ccccc1C)C1CC1)c1nnnn12 |  | 0.231 µM [rising, full curve, poor fit] | 
32 | COc1ccccc1N1N=C(c2ccc([N+](=O)[O-])cc2)CC1c1ccccc1 (stereo not given) | -18.6% | 4.11 µM [rising, partial curve] | 0.58 µM [falling, full curve]
33 | O=C(Nc1ccc(Cl)c(Cl)c1)C1=Cc2ccccc2OC1 | -27.7% |  | 0.731 µM [rising, full curve, poor fit]
34 | CCCCN(C(=O)C1CCN(C(=O)c2ccccc2C)CC1)c1c(N)n(CCCC)c(=O)[nH]c1=O | 23.4% |  | 0.0651 µM [rising, full curve, poor fit]
35 | O=C(C1CCCN1C(=O)c1cccs1)N1CCN(Cc2ccc3c(c2)OCO3)CC1 (stereo not given) |  | 6.51 µM [rising, single point] | 0.651 µM [rising, full curve]
36 | Cc1ccc2c(Cn3ccnc3)cc(=O)oc2c1C |  |  | 0.58 µM [rising, single point]
37 | On1c(-c2ccco2)nc2c1CCc1nonc1-2 | 13.8% | 3.66 µM [rising, partial curve, poor fit] | 
38 | CC(=O)N1c2ccc(S(=O)(=O)N3CCC(C(=O)Nc4cccc(C(F)(F)F)c4)CC3)cc2CC1C (stereo not given) | -10.4% |  | 0.58 µM [falling, single point]
39 | Cc1nn(-c2ccccc2)c(C)c1/C=C1\C(=O)N(C)C(=S)N1C | 2.93% | 0.164 µM [falling, full curve, poor fit] | 6.51 µM [falling, single point]
40 | Cc1cc(C(=O)Nc2ccccn2)no1 | -6.98% | 6.51 µM [falling, single point] | 

Part of the list above in a different format:
Row,Compound,cell number change,AC50 [1],AC50 [2]
28,COc1cccc(NC(=O)c2ncc(Cl)c(Cl)c2Cl)c1,-44.5%,"0.00651 µM [falling, full curve, poor fit]","0.164 µM [falling, full curve]"
29,Cc1ccc(NS(=O)(=O)c2cccc(C(=O)NCC(c3cccs3)N3CCOCC3)c2)cc1 (stereo not given),8.01%,,"0.411 µM [falling, single point]"

(more compounds)

Row | Compound | cell number change | AC50 [1] | AC50 [2]
41 | CC1CCCCN1S(=O)(=O)c1ccc(NC(=O)c2cccc(-n3cnnn3)c2)cc1 (stereo not given) | -5.02% |  | 
42 | Cc1nn2c(N)c(C#N)cnc2c1-c1ccc(Cl)cc1 | -9.18% | 0.82 µM [rising, full curve, poor fit] | 0.82 µM [rising, full curve]
43 | C/C(=N\NC(N)=O)C1CC(Cc2ccccc2)C(=O)O1 (stereo not given) | -17% |  | 
44 | COc1ccc(OC)c(-c2cc(C(=O)NCc3ccco3)no2)c1 | 0.893% |  | 
45 | Cc1cc(C(=O)NCc2cccnc2)n(-c2ccccc2)n1 | -30.2% | 29.1 µM [falling, single point] | 
46 | CCNC(=O)NC(=O)CSc1ccccc1F | -13.6% |  | 0.0326 µM [falling, full curve, poor fit]
47 | CCC(O)C1CCN(C(=O)c2cc(COc3ccc(F)cc3F)on2)CC1 (stereo not given) | -35.7% | 32.6 µM [falling, single point] | 9.2 µM [rising, partial curve, poor fit]
48 | Cc1csc2nc(CSc3ccc(Cl)cc3)cn12 |  |  | 2.06 µM [rising, single point]
49 | CCOC(=O)C(CCC(C)=O)C(=O)c1ccccc1 (stereo not given) | 11% |  | 5.8 µM [rising, full curve]
50 | NC(=O)SC/C(=N\S(=O)(=O)c1ccccc1)Nc1ccccc1 | 5.7% |  | 1.46 µM [falling, full curve]
51 | Cc1nc(SCc2c(F)cccc2Cl)n[nH]1 | 11.9% |  | 20.6 µM [rising, single point]
52 | CCN(CC)c1ccc(/C=N/Nc2nc3ccccc3[nH]2)cc1 | -73.4% | 5.8 µM [falling, full curve] | 2.59 µM [falling, full curve]
53 | O=C(C1CCCCC1)N1CCC(n2nnc3ccccc32)CC1 | 19.6% |  | 5.8 µM [rising, full curve, poor fit]
54 | CCC1CCc2c(sc(NC(=O)c3ccoc3C)c2C(N)=O)C1 (stereo not given) | -42.9% | 29.1 µM [falling, single point] | 
55 | Cc1ccc(S(=O)(=O)NC2=NCN(Cc3ccccc3)CN2)cc1 | -4.96% |  | 23.1 µM [falling, partial curve]
56 | CC(=O)c1ccc(NC(=O)CSc2nc(C3CC3)nc3ccccc23)cc1 | 153% | 29.1 µM [rising, single point] | 
57 | COc1ccc2nc3sc(C(=O)NCc4cccs4)c(N)c3cc2c1 | -34.9% | 4.11 µM [falling, full curve] | 4.11 µM [falling, single point]
58 | COC(=O)C(NC(=O)C(CC(C)C)NC(=O)C1CCC(C)CC1)C(C)C (stereo not given) | 17.5% |  | 
59 | Cc1ccc(NS(=O)(=O)c2cc(NC(=O)c3ccc4c(c3)NC(=O)CS4)ccc2C)c(C)c1 | 81.5% |  | 
60 | Cc1ccc(C)n1C(Cc1ccccc1)C(=O)O (stereo not given) | 2.01% | 1.84 µM [rising, partial curve] | 

Quoted from the listing.
AC50 [1], `Cc1ccc(C)n1C(Cc1ccccc1)C(=O)O` (stereo not given) reads 1.84 µM [rising, partial curve]
AC50 [2], `CCC(O)C1CCN(C(=O)c2cc(COc3ccc(F)cc3F)on2)CC1` (stereo not given) reads 9.2 µM [rising, partial curve, poor fit]
